# Assay results reported in the supplement of paper PMC11348887.
# The other results are listed elsewhere or left out. Most values lie at the level of the controls, where differences are scatter.
# System: hPSC-derived cortical neurons (WA09)
# Assay: nucleus area z-score vs screen plate; higher = larger nuclei (more mature)
# Conditions: 5 µM; treatment: days 7-14 after plating, readout day 21
row,SMILES,nucleus area z-score
1,O=C(/C=C/c1cccc(S(=O)(=O)Nc2ccccc2)c1)NO [Belinostat (PXD101)],-8.82
2,O=C1[C@H](Cc2ccc(O)cc2)N2C(=O)CCN(C(=O)NCc3ccccc3)[C@H]2CN1Cc1cccc2ccccc12,0.619
3,Cn1c(=O)c2c(ncn2CC2OCCO2)n(C)c1=O [Doxofylline],0.198
4,OC[C@@H](O)[C@@H](O)[C@@H](O)CO [Ribitol],-0.199
5,CNC(=O)c1ccc2cc([C@@]3(O)CCn4cncc43)ccc2c1 [TAK-700 (Orteronel)],-0.248
6,Cc1cc(-c2ccc(CC(=O)Nc3ccc(-c4cccnc4)cc3)cc2)ccn1,-0.518
7,Cc1ccc(Nc2nccc(N(C)c3ccc4c(C)n(C)nc4c3)n2)cc1S(N)(=O)=O [Pazopanib],1.18
8,CC(C)C[C@H](NC(=O)[C@H](Cc1ccccc1)C[C@@H](O)[C@H](Cc1ccccc1)NC(=O)OC(C)(C)C)C(=O)N[C@@H](Cc1ccccc1)C(N)=O,0.412
9,Nc1nc(OCc2cc(Br)cs2)c2[nH]cnc2n1 [Lomeguatrib],2.87
10,O=C(O)CCCCC(CCSCc1ccccc1)SCc1ccccc1 (centres undefined),0.428
11,Cc1ccc(Sc2ccccc2N2CCNCC2)c(C)c1,-2.12
12,CS(=O)(=O)c1ccc([C@@H](O)[C@@H](CF)NC(=O)C(Cl)Cl)cc1 [Florfenicol],-0.594
13,Cc1c(-c2ccnn2C)cc(C(=O)NCc2ccc(S(C)(=O)=O)cn2)c(=O)n1-c1cccc(C(F)(F)F)c1 [Alvelestat (AZD9668)],-0.0245
14,Cc1onc(-c2ccccc2Cl)c1C(=O)N[C@@H]1C(=O)N2[C@@H]1SC(C)(C)[C@@H]2C(=O)O [Cloxacillin Sodium],0.209

# Structural class: the entries above containing fluorine (two)
row,SMILES,nucleus area z-score
12,CS(=O)(=O)c1ccc([C@@H](O)[C@@H](CF)NC(=O)C(Cl)Cl)cc1 [Florfenicol],-0.594
13,Cc1c(-c2ccnn2C)cc(C(=O)NCc2ccc(S(C)(=O)=O)cn2)c(=O)n1-c1cccc(C(F)(F)F)c1 [Alvelestat (AZD9668)],-0.0245
